Values from PubChem BioAssay AID504808 (Drosophila RNAi Screening Center, 2011)

Aim: 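Genes whose loss lifts activity of an E2F-responsive reporter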 (primary screen)
System: Drosophila S2 cells
Knock-down reagent: long dsRNA against Drosophila genes
Measured: 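Firefly luciferase driven by E2F sites, normalised to Renilla luciferase on the same minimal promoter, measured by plate reader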
Scale: E2F firefly: higher = more E2F reporter activity; Renilla normaliser: higher = more normaliser reporter signal
Call rule: 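Called active if the normalised E2F reporter went up by over 50%; the cutoff is arbitrary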
The screen tested about 21,000 reagents; shown is an unselected part of those that have a named target and a result. Of all reagents, 18 (0.084%) got an active call. 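Raw counts without plate normalisation, one of two replicates; the ratio scores behind the calls were not deposited.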 The numbers tell different reagents against one gene apart. Not stated in the record: the amount of reagent, the time to read-out.

| gene | reagent no. | E2F firefly, rep 1 | Renilla normaliser, rep 1 | outcome |
| --- | --- | --- | --- | --- |
| Ktch (Ketchup) | 1 | 1.34e5 | 6398 | inactive |
| CG12206 | 1 | 1.06e5 | 4879 | inactive |
| Ing3 (Inhibitor of growth family, member 3) | 1 | 1.72e5 | 3873 | inactive |
| CG3788 | 1 | 1.05e5 | 4870 | inactive |
| INPP5E (Inositol polyphosphate 5-phosphatase E) | 1 | 1.26e5 | 7311 | inactive |
| brv1 (brivido-1) | 1 | 1.46e5 | 6404 | inactive |
| CG32762 | 1 | 1.10e5 | 4727 | inactive |
| CG14125 | 1 | 1.22e5 | 6718 | inactive |
| Ptp69D (Protein tyrosine phosphatase 69D) | 1 | 89740 | 3981 | inactive |
| mwh (multiple wing hairs) | 1 | 90358 | 4084 | inactive |
| CG7483 | 1 | 1.37e5 | 7299 | inactive |
| CG7483 | 2 | – | – | inactive |
| CG30419 | 1 | 1.14e5 | 4693 | inactive |
| CG30419 | 2 | 1.07e5 | 4211 | inactive |
| sage (salivary gland-expressed bHLH) | 1 | 50677 | 2606 | inactive |
| Cpr76Bd (Cuticular protein 76Bd) | 1 | 1.39e5 | 5555 | inactive |
| Kr-h1 (Kruppel homolog 1) | 1 | 1.28e5 | 6910 | inactive |
| Kr-h1 (Kruppel homolog 1) | 2 | 94314 | 4012 | inactive |
| TwdlE (TweedleE) | 1 | 1.59e5 | 5323 | inactive |
| CG12594 | 1 | 1.41e5 | 6958 | inactive |
| Rbp6 (RNA-binding protein 6) | 1 | 1.40e5 | 4212 | inactive |
| Rbp6 (RNA-binding protein 6) | 2 | 1.57e5 | 4076 | inactive |
| Rbp6 (RNA-binding protein 6) | 3 | 1.65e5 | 8526 | inactive |
| Rbp6 (RNA-binding protein 6) | 4 | 1.54e5 | 8258 | inactive |
| Rbp6 (RNA-binding protein 6) | 5 | 1.34e5 | 7017 | inactive |
| trx (trithorax) | 1 | 69288 | 3192 | inactive |
| CCT2 (Chaperonin containing TCP1 subunit 2) | 1 | 8210 | 760 | inactive |
| CG7896 | 1 | 1992 | 832 | inactive |
| Hr83 (Hormone receptor 83) | 1 | 1.48e5 | 6957 | inactive |
| CG7214 | 1 | 97410 | 3627 | inactive |
| vg (vestigial) | 1 | 85485 | 4090 | inactive |
| Acat1 (Acetyl-CoA acetyltransferase 1) | 1 | 8562 | 792 | inactive |
| mRpS33 (mitochondrial ribosomal protein S33) | 1 | 92203 | 4350 | inactive |
| wol (wollknaeuel) | 1 | 92396 | 3460 | inactive |
| brv3 (brivido-3) | 1 | 1.07e5 | 5531 | inactive |
| stac (staccato) | 1 | 85526 | 2587 | inactive |
| stac (staccato) | 2 | 1.07e5 | 5556 | inactive |
| Gr61a (Gustatory receptor 61a) | 1 | 1.04e5 | 3791 | inactive |
| CG4598 | 1 | 1.59e5 | 5051 | inactive |
| Gyf (Gigyf) | 1 | 2226 | 856 | inactive |
| CG42355 | 1 | 1.07e5 | 4309 | inactive |
| Cndp2 (Cytosolic non-specific dipeptidase 2) | 1 | 1.13e5 | 4505 | inactive |
| CG10345 | 1 | 76336 | 3523 | inactive |
| CG6059 | 1 | 1804 | 996 | inactive |
| sens-2 (senseless-2) | 1 | 1.44e5 | 5322 | inactive |
| sens-2 (senseless-2) | 2 | 1.45e5 | 5363 | inactive |
| CG5245 | 1 | 1.70e5 | 6808 | inactive |
| CG15506 | 1 | 1.32e5 | 6281 | inactive |
| ord (orientation disruptor) | 1 | 1.09e5 | 4352 | inactive |
| BBS9 (Bardet-Biedl syndrome 9) | 1 | 1.22e5 | 5078 | inactive |
| Dlip1 (Dorsal interacting protein 1) | 1 | 69102 | 4939 | inactive |
| CG12607 | 1 | 93520 | 4001 | inactive |
| CG14420 | 1 | 1.30e5 | 6882 | inactive |
| CG9917 | 1 | 7341 | 680 | inactive |
| CG42493 | 1 | 95384 | 3702 | inactive |
| CG34292 | 1 | 79587 | 2472 | inactive |
| SF1 (Splicing factor 1) | 1 | 1.10e5 | 5900 | inactive |
| CG31404 | 1 | 1.50e5 | 6927 | inactive |
| CG17991 | 1 | 1.05e5 | 5695 | inactive |
| Ref1 (RNA and export factor binding protein 1) | 1 | 65510 | 3279 | inactive |
| Pat1 (Protein interacting with APP tail-1) | 1 | 8538 | 804 | inactive |
| CG42694 | 1 | 1.25e5 | 4785 | inactive |
| CG10681 | 1 | 71355 | 3801 | inactive |
| sced (scrambled) | 1 | 75591 | 3457 | inactive |
| mRpL32 (mitochondrial ribosomal protein L32) | 1 | 1.16e5 | 5390 | inactive |
| Rx (Retinal Homeobox) | 1 | 1.15e5 | 5072 | inactive |
| Rx (Retinal Homeobox) | 2 | 1.00e5 | 4736 | inactive |
| CG9628 | 1 | 82890 | 3750 | inactive |
| Eip75B (Ecdysone-induced protein 75B) | 1 | 54914 | 2896 | inactive |
| CG12728 | 1 | 8119 | 688 | inactive |
| Pcif1 (Phosphorylated CTD-interacting factor 1) | 1 | 74007 | 4308 | inactive |
| Thor | 1 | 91128 | 4246 | inactive |
| St4 (Sulfotransferase 4) | 1 | 1.05e5 | 4407 | inactive |
| CCT7 (Chaperonin containing TCP1 subunit 7) | 1 | 1.25e5 | 7747 | inactive |
| PolD1 (DNA polymerase delta subunit 1) | 1 | 1.49e5 | 6655 | inactive |
| CR12798 (pseudo) | 1 | 1.49e5 | 6313 | inactive |
| Mtpbeta (Mitochondrial trifunctional protein beta subunit) | 1 | 93983 | 3718 | inactive |
| ergic53 | 1 | 96019 | 3951 | inactive |
| CG32264 | 1 | 93301 | 3568 | inactive |
| CG32264 | 2 | 91214 | 4307 | inactive |
| CG32264 | 3 | 73545 | 3785 | inactive |
| CG32264 | 4 | 98012 | 4479 | inactive |
| CG32264 | 5 | 82258 | 3338 | inactive |
| elB (elbow B) | 1 | 1.28e5 | 5024 | inactive |
| elB (elbow B) | 2 | 1.03e5 | 4595 | inactive |

Entries listed so far whose target name begins with K or k:
| gene | reagent no. | E2F firefly, rep 1 | Renilla normaliser, rep 1 | outcome |
| --- | --- | --- | --- | --- |
| Ktch (Ketchup) | 1 | 1.34e5 | 6398 | inactive |
| Kr-h1 (Kruppel homolog 1) | 1 | 1.28e5 | 6910 | inactive |
| Kr-h1 (Kruppel homolog 1) | 2 | 94314 | 4012 | inactive |
